Counter-ions that a name gives are not always drawn. The list shows a part of the results. Hit calls seldom repeat between salt and free forms of one compound.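 Kinases, fused to nanoluciferase, were expressed in K562 cells; luminescence was measured every 4 h from 2 to 18 h as percent of control (DMSO = 100%, positive control = 0%). A time point is decreased if signal falls significantly (2 sigma). Hits were called by the authors by a rule that is not shown; the count of time points alone does not decide it.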

By UniProt entry, the sequences of proteins in these tests, tags left out.
UniProt P36888, whole entry: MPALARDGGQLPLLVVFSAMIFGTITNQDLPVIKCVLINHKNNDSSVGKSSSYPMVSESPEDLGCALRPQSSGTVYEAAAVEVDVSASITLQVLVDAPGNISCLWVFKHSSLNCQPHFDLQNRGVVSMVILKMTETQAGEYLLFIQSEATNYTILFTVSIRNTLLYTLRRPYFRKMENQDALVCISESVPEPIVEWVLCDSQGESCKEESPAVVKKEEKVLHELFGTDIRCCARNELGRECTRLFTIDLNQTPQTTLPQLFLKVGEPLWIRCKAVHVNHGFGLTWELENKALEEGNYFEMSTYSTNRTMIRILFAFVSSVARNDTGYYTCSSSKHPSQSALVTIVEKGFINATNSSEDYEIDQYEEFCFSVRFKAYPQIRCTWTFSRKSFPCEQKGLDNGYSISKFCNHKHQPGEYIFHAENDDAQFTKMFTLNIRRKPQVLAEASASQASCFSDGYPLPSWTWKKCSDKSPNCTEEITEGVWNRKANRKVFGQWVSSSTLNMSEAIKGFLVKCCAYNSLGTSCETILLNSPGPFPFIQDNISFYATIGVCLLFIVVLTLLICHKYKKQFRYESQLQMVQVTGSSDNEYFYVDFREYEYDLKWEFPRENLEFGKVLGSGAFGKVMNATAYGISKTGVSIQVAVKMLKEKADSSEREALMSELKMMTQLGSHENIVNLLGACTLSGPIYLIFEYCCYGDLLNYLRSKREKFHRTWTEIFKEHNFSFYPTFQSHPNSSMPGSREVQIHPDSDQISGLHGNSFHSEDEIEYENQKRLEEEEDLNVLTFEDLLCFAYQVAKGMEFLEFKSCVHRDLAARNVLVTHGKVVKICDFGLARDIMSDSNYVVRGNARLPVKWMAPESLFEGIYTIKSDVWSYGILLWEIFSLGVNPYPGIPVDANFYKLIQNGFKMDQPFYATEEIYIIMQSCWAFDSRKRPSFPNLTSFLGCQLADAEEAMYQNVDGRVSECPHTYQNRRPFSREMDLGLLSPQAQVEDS

In the first experiment the target is FGR (UniProt P09769). Kind of experiment: kinase-Nluc reporter destabilization hit call (1 = scored as downregulated) (binary); higher = compound decreases kinase abundance. To be noted: K562; 2-18 h.
Take `CC1=C[C@]23C(=O)[C@@H](C=C(CO)[C@@H](O)[C@]2(O)[C@H]1O)[C@H]1[C@@H](C[C@H]3C)C1(C)C` [Ingenol] (10 µM): the “kinase-Nluc reporter destabilization hit call” value was inactive: 0.

Regarding `C=C[C@H]1CN2CC[C@]3(C(=O)Nc4ccccc43)[C@@H]2C[C@@H]1/C(=C\OC)C(=O)OC` [Corynoxeine] (2 µM), the “kinase-Nluc reporter destabilization hit call” value is inactive: 0.

For the compound `O=C(O)c1sc2cc(Cl)ccc2c1Cl` (10 µM), the “kinase-Nluc reporter destabilization hit call” value is inactive: 0.

Consider `C[C@H]1CC[C@]2(NC1)O[C@H]1C[C@H]3[C@@H]4CC[C@H]5C[C@@H](O)CC[C@]5(C)[C@H]4CC[C@]3(C)[C@H]1[C@@H]2C` [Tomatidine (hydrochloride)] (10 µM), for which the “kinase-Nluc reporter destabilization hit call” value was inactive: 0.

Take `O=C1C=CC[C@@H]2[C@H]3CCCN4CCC[C@@H](CN12)[C@@H]34` [Sophocarpine (monohydrate)] (2.5 µM): the “kinase-Nluc reporter destabilization hit call” value was inactive: 0.

With `Cc1n[nH]cc1-c1cc2nc([C@@H]3CC4CCN3CC4)[nH]c(=O)c2s1` [Simurosertib] (2.5 µM), the “kinase-Nluc reporter destabilization hit call” value was inactive: 0.

For the compound `O=C(N[C@@H](COc1ccc2[nH]c(=O)[nH]c2c1)c1ccccc1)c1cccn(Cc2ccc(F)c(F)c2)c1=O` (2.5 µM), the “kinase-Nluc reporter destabilization hit call” value was inactive: 0.

Regarding `O=C(/C=C/c1ccccc1)OC[C@H]1O[C@@H](O[C@@H]2OC=C[C@H]3[C@H](O)[C@@H]4O[C@]4(CO)[C@@H]23)[C@H](O)[C@@H](O)[C@@H]1O` [Picroside I] (10 µM), the “kinase-Nluc reporter destabilization hit call” value is inactive: 0.

In the case of `C[C@@H]1CC[C@H]2[C@@H](C)C(=O)O[C@@H]3O[C@@]4(C)CC[C@@H]1[C@]32OO4` [Artemisinin] (10 µM), the “kinase-Nluc reporter destabilization hit call” value is inactive: 0.

Take `N#CC(C#N)=Cc1ccc([N+](=O)[O-])c(O)c1` (10 µM): the “kinase-Nluc reporter destabilization hit call” value is inactive: 0.

For `C[C@H](CCC(=O)O)C[C@H](C)C[C@H](C)C(=O)/C=C(\O)[C@H](C)C[C@H](C)C/C=C/[C@@H](C)[C@@H](O)[C@@H](C)[C@@H](O)C[C@@H]1CC[C@@](C)([C@H]2CC[C@@](C)([C@@H](C)O)O2)O1` [Ionomycin (calcium)] (2.5 µM), the “kinase-Nluc reporter destabilization hit call” value is inactive: 0.

Turning to `CC1C(=O)OC2C(O)C34C5OC(=O)C3(OC3OC(=O)C(O)C34C(C(C)(C)C)C5O)C12O` (stereo not drawn) [Ginkgolide C] (10 µM), the “kinase-Nluc reporter destabilization hit call” value is inactive: 0.

Turning to `Cn1cc(C2=C(c3cn(C4CCN(Cc5ccccn5)CC4)c4ccccc34)C(=O)NC2=O)c2ccccc21` [Enzastaurin] (10 µM), the “kinase-Nluc reporter destabilization hit call” value is inactive: 0.

Consider `O=c1[nH]c2ccccc2n1C1CCN(Cc2ccc(-c3[nH]c4cc5ncnc5cc4nc3-c3ccccc3)cc2)CC1` [AKT inhibitor VIII] (2.5 µM), for which the “kinase-Nluc reporter destabilization hit call” value was inactive: 0.

For the compound `CCN1CCN(C(=O)Cc2ccc(Nc3ncc(F)c(Nc4ccc(C(=O)Nc5ccccc5Cl)cc4)n3)cc2)CC1` (2.5 µM), the “kinase-Nluc reporter destabilization hit call” value was inactive: 0.

In the case of `C=CC(=O)N[C@H]1C=C(C)c2c(-c3cnc4ccccc4c3)c3c(N)ncnc3n2C1` (10 µM), the “kinase-Nluc reporter destabilization hit call” value was inactive: 0.

In the case of `CC(C)(C)c1cc(C=C(C#N)C#N)cc(Br)c1O` (2.5 µM), the “kinase-Nluc reporter destabilization hit call” value was inactive: 0.

On to `CCCCNc1nc(N)c2[nH]c(=O)n(Cc3ccc(C)nc3)c2n1` (10 µM), for which the “kinase-Nluc reporter destabilization hit call” value was inactive: 0.

Take `C=CC(=O)Nc1ccc2[nH]c(=O)n(C3CCN(Cc4ccc(-c5nc6cc[nH]c(=O)c6cc5-c5ccccc5)cc4)CC3)c2c1` [Borussertib] (10 µM): the “kinase-Nluc reporter destabilization hit call” value was inactive: 0.

`COc1ccc(N(C(=O)Oc2c(C)cccc2C)c2ccnc(Nc3ccc(N4CCN(C)CC4)cc3)n2)c(OC)c1` (2.5 µM): the “kinase-Nluc reporter destabilization hit call” value is inactive: 0.

On to `COc1ccc2c(c1)[nH]c1c(C)nccc12` [Harmine] (10 µM), for which the “kinase-Nluc reporter destabilization hit call” value is inactive: 0.

On to `O=c1cc(O)c2ccccc2o1` [4-Hydroxycoumarin] (10 µM), for which the “kinase-Nluc reporter destabilization hit call” value is inactive: 0.

`CC(=O)c1c(O)c(C)c(O)c(Cc2c(O)c3c(c(C(=O)/C=C/c4ccccc4)c2O)OC(C)(C)C=C3)c1O` [Rottlerin] (2 µM): the “kinase-Nluc reporter destabilization hit call” value was inactive: 0.

Take `N#CC(C#N)=Cc1ccc(O)c(O)c1` [Tyrphostin 23] (10 µM): the “kinase-Nluc reporter destabilization hit call” value is inactive: 0.

As for `C/C(O)=C(\C#N)C(=O)Nc1cc(Br)ccc1Br` (10 µM), the “kinase-Nluc reporter destabilization hit call” value is inactive: 0.

For the compound `Cc1ccccc1-n1c(Cn2ncc3c(N)ncnc32)nc2cccc(C)c2c1=O` (10 µM), the “kinase-Nluc reporter destabilization hit call” value is inactive: 0.

For the compound `COc1cc2c(cc1F)C(c1ccccc1Cl)=Nc1c(n[nH]c1C)N2` (0.5 µM), the “kinase-Nluc reporter destabilization hit call” value was inactive: 0.

Turning to `COc1ccc2c(c1)/C(=C/c1cnc[nH]1)C(=O)N2` (2.5 µM), the “kinase-Nluc reporter destabilization hit call” value is inactive: 0.

Take `O=[N+]([O-])/C=C/c1ccc2c(c1)OCO2` (2.5 µM): the “kinase-Nluc reporter destabilization hit call” value was inactive: 0.

In a further experiment the target is FLT3 (UniProt P36888). Described as above. To be noted: K562; 2-18 h.
With `CC1=C[C@]23C(=O)[C@@H](C=C(CO)[C@@H](O)[C@]2(O)[C@H]1O)[C@H]1[C@@H](C[C@H]3C)C1(C)C` [Ingenol] (10 µM), the “kinase-Nluc reporter destabilization hit call” value was inactive: 0.

Turning to `C=C[C@H]1CN2CC[C@]3(C(=O)Nc4ccccc43)[C@@H]2C[C@@H]1/C(=C\OC)C(=O)OC` [Corynoxeine] (2 µM), the “kinase-Nluc reporter destabilization hit call” value is inactive: 0.

As for `O=C(O)c1sc2cc(Cl)ccc2c1Cl` (10 µM), the “kinase-Nluc reporter destabilization hit call” value was inactive: 0.

For `C[C@H]1CC[C@]2(NC1)O[C@H]1C[C@H]3[C@@H]4CC[C@H]5C[C@@H](O)CC[C@]5(C)[C@H]4CC[C@]3(C)[C@H]1[C@@H]2C` [Tomatidine (hydrochloride)] (10 µM), the “kinase-Nluc reporter destabilization hit call” value was inactive: 0.

For `O=C1C=CC[C@@H]2[C@H]3CCCN4CCC[C@@H](CN12)[C@@H]34` [Sophocarpine (monohydrate)] (2.5 µM), the “kinase-Nluc reporter destabilization hit call” value was inactive: 0.

For the compound `Cc1n[nH]cc1-c1cc2nc([C@@H]3CC4CCN3CC4)[nH]c(=O)c2s1` [Simurosertib] (2.5 µM), the “kinase-Nluc reporter destabilization hit call” value was inactive: 0.

With `O=C(N[C@@H](COc1ccc2[nH]c(=O)[nH]c2c1)c1ccccc1)c1cccn(Cc2ccc(F)c(F)c2)c1=O` (2.5 µM), the “kinase-Nluc reporter destabilization hit call” value is inactive: 0.

Take `O=C(/C=C/c1ccccc1)OC[C@H]1O[C@@H](O[C@@H]2OC=C[C@H]3[C@H](O)[C@@H]4O[C@]4(CO)[C@@H]23)[C@H](O)[C@@H](O)[C@@H]1O` [Picroside I] (10 µM): the “kinase-Nluc reporter destabilization hit call” value was inactive: 0.

Regarding `C[C@@H]1CC[C@H]2[C@@H](C)C(=O)O[C@@H]3O[C@@]4(C)CC[C@@H]1[C@]32OO4` [Artemisinin] (10 µM), the “kinase-Nluc reporter destabilization hit call” value is inactive: 0.

As to `N#CC(C#N)=Cc1ccc([N+](=O)[O-])c(O)c1` (10 µM), the “kinase-Nluc reporter destabilization hit call” value was inactive: 0.

Take `C[C@H](CCC(=O)O)C[C@H](C)C[C@H](C)C(=O)/C=C(\O)[C@H](C)C[C@H](C)C/C=C/[C@@H](C)[C@@H](O)[C@@H](C)[C@@H](O)C[C@@H]1CC[C@@](C)([C@H]2CC[C@@](C)([C@@H](C)O)O2)O1` [Ionomycin (calcium)] (2.5 µM): the “kinase-Nluc reporter destabilization hit call” value is inactive: 0.

For the compound `CC1C(=O)OC2C(O)C34C5OC(=O)C3(OC3OC(=O)C(O)C34C(C(C)(C)C)C5O)C12O` (stereo not drawn) [Ginkgolide C] (10 µM), the “kinase-Nluc reporter destabilization hit call” value was inactive: 0.

As to `Cn1cc(C2=C(c3cn(C4CCN(Cc5ccccn5)CC4)c4ccccc34)C(=O)NC2=O)c2ccccc21` [Enzastaurin] (10 µM), the “kinase-Nluc reporter destabilization hit call” value was inactive: 0.

On to `O=c1[nH]c2ccccc2n1C1CCN(Cc2ccc(-c3[nH]c4cc5ncnc5cc4nc3-c3ccccc3)cc2)CC1` [AKT inhibitor VIII] (2.5 µM), for which the “kinase-Nluc reporter destabilization hit call” value was inactive: 0.

Turning to `CCN1CCN(C(=O)Cc2ccc(Nc3ncc(F)c(Nc4ccc(C(=O)Nc5ccccc5Cl)cc4)n3)cc2)CC1` (2.5 µM), the “kinase-Nluc reporter destabilization hit call” value is inactive: 0.

For `C=CC(=O)N[C@H]1C=C(C)c2c(-c3cnc4ccccc4c3)c3c(N)ncnc3n2C1` (10 µM), the “kinase-Nluc reporter destabilization hit call” value is inactive: 0.

As to `CC(C)(C)c1cc(C=C(C#N)C#N)cc(Br)c1O` (2.5 µM), the “kinase-Nluc reporter destabilization hit call” value is inactive: 0.

Turning to `CCCCNc1nc(N)c2[nH]c(=O)n(Cc3ccc(C)nc3)c2n1` (10 µM), the “kinase-Nluc reporter destabilization hit call” value is inactive: 0.

For `C=CC(=O)Nc1ccc2[nH]c(=O)n(C3CCN(Cc4ccc(-c5nc6cc[nH]c(=O)c6cc5-c5ccccc5)cc4)CC3)c2c1` [Borussertib] (10 µM), the “kinase-Nluc reporter destabilization hit call” value was inactive: 0.

Consider `COc1ccc(N(C(=O)Oc2c(C)cccc2C)c2ccnc(Nc3ccc(N4CCN(C)CC4)cc3)n2)c(OC)c1` (2.5 µM), for which the “kinase-Nluc reporter destabilization hit call” value is inactive: 0.

As for `COc1ccc2c(c1)[nH]c1c(C)nccc12` [Harmine] (10 µM), the “kinase-Nluc reporter destabilization hit call” value is inactive: 0.

On to `O=c1cc(O)c2ccccc2o1` [4-Hydroxycoumarin] (10 µM), for which the “kinase-Nluc reporter destabilization hit call” value was inactive: 0.

With `CC(=O)c1c(O)c(C)c(O)c(Cc2c(O)c3c(c(C(=O)/C=C/c4ccccc4)c2O)OC(C)(C)C=C3)c1O` [Rottlerin] (2 µM), the “kinase-Nluc reporter destabilization hit call” value is inactive: 0.

`N#CC(C#N)=Cc1ccc(O)c(O)c1` [Tyrphostin 23] (10 µM): the “kinase-Nluc reporter destabilization hit call” value is inactive: 0.

On to `C/C(O)=C(\C#N)C(=O)Nc1cc(Br)ccc1Br` (10 µM), for which the “kinase-Nluc reporter destabilization hit call” value was inactive: 0.

On to `Cc1ccccc1-n1c(Cn2ncc3c(N)ncnc32)nc2cccc(C)c2c1=O` (10 µM), for which the “kinase-Nluc reporter destabilization hit call” value is inactive: 0.

Consider `COc1cc2c(cc1F)C(c1ccccc1Cl)=Nc1c(n[nH]c1C)N2` (0.5 µM), for which the “kinase-Nluc reporter destabilization hit call” value is inactive: 0.

Regarding `COc1ccc2c(c1)/C(=C/c1cnc[nH]1)C(=O)N2` (2.5 µM), the “kinase-Nluc reporter destabilization hit call” value was inactive: 0.

Take `O=[N+]([O-])/C=C/c1ccc2c(c1)OCO2` (2.5 µM): the “kinase-Nluc reporter destabilization hit call” value is inactive: 0.
